The target in assay [1] is T1, human Bonzo with N-terminal hemagglutinin (HA) epitope, expressed on transfected L1.2 cells (Bonzo/L1.2 cells) (human) (UniProt O00574).
T1 sequence: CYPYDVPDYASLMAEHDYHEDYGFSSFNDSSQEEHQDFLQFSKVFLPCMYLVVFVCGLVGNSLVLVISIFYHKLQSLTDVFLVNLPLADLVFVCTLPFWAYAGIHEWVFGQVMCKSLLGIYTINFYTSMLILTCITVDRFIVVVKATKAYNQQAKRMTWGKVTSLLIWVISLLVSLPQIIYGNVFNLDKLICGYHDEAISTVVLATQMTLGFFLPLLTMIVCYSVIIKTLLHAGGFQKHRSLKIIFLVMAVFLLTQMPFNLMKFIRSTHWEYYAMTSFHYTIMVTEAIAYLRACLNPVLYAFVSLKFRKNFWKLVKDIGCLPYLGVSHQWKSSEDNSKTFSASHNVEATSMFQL
Put plainly: inferred from chemotaxis of Bonzo/L1.2 cells.

Protein sequences, listed by entry. Tags and fused reporters are not part of them. Lines headed by an entry give the natural chain unless they say otherwise; changes in a name come on top.
UniProt O00574: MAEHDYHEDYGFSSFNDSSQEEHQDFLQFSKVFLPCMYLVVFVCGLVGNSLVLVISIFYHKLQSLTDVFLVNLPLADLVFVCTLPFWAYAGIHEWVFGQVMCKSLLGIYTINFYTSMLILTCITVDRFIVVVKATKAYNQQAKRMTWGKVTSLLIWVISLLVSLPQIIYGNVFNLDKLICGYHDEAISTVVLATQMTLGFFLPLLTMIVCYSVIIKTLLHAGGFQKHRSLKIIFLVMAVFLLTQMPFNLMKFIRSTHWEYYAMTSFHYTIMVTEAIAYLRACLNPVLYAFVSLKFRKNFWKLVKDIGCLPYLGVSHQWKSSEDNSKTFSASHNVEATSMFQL

Assay [2] concerns the target T1, human Bonzo with N-terminal hemagglutinin (HA) epitope, expressed on transfected L1.2 cells (Bonzo/L1.2 cells) (human). Description: synthetic peptide on Bonzo/L1.2 cells; binding assay not described.

These are yes or no findings as the source states them, for the method shown. Some results given as binding are weak or reduced against the parent protein; the word gives no strength. Sequences can lack the tags named with a protein.

B1: synthetic peptide consisting of amino acid residues 30 (Asn) to 95 (Ser) of human SExCkine (SEQ ID NO:4) (peptide)
peptide: NEGSVTGSCYCGKRISSDSPPSVQFMNRLRKHLRAYHRCLYYTRFQLLSWSVCGGNKDPWVQELMS
For the molecule B1, the binding entry in assay [1] and in assay [2] was “binds” each time.
